Measured values reported in patent US20150203581A1.
These are yes or no findings as the source states them, for the method shown. Some entries that bind do so weakly or less than the wild type.

The chains behind the UniProt entries cited, without tags or fusion partners. Where a name states a change or a piece, a line headed by the entry shows the natural chain unless it says otherwise.
UniProt P08648: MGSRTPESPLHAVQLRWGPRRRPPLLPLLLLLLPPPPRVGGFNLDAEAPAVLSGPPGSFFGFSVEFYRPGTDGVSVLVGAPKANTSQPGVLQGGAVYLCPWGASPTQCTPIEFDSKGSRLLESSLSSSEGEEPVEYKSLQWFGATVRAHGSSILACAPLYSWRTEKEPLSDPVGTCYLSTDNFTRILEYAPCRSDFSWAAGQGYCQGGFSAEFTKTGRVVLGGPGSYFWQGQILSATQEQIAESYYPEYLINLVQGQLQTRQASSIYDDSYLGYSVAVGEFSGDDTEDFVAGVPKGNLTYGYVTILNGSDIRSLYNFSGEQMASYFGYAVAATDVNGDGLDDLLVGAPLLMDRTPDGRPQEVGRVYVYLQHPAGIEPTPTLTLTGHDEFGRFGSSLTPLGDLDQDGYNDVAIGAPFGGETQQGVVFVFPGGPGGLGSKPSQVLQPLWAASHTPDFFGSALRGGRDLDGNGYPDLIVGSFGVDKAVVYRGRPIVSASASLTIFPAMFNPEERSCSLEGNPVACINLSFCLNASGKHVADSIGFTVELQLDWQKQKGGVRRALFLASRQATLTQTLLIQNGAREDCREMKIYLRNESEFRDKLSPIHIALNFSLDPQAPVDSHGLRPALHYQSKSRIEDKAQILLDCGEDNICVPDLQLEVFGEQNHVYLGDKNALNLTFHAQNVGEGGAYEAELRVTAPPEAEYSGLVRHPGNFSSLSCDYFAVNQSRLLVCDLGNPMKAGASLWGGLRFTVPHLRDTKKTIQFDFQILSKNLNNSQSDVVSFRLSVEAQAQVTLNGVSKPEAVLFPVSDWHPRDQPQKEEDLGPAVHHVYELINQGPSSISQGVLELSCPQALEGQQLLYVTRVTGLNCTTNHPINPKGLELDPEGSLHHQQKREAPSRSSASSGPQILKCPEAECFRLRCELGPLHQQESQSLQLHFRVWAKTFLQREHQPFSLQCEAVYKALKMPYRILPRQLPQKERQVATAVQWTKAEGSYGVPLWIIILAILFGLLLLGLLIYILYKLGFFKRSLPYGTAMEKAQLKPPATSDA
UniProt P05556: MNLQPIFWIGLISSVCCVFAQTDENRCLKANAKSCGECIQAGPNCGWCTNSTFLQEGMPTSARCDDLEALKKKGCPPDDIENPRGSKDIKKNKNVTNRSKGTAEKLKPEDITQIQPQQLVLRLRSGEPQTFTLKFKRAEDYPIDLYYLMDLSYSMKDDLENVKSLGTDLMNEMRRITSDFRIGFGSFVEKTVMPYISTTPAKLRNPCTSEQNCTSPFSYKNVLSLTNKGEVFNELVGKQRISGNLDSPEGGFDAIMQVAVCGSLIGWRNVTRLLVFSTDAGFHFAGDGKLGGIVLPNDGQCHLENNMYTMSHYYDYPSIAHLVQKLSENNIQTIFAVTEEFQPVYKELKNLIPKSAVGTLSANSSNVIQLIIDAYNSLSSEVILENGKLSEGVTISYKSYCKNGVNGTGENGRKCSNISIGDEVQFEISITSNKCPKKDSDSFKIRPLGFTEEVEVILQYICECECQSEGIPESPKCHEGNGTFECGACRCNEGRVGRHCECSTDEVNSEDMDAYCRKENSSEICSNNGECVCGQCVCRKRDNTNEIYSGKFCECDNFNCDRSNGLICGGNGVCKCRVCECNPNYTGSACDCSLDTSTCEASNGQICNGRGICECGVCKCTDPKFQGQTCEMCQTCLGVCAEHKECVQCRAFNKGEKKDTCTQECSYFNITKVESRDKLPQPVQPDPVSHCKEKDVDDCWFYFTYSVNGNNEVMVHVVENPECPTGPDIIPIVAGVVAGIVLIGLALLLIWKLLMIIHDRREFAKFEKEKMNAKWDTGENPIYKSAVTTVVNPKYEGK

Biological target: recombinant human integrin α5β1 (human) (UniProt P08648+P05556)
Test: phage competition ELISA, Fab on phage

| binding | Binder |
| --- | --- |
| binds | h18C12.v3 (Fab, V domains shown) VH: EVQLVESGGGLVQPGGSLRLSCAASGFTFSNRWIYWVRQAPGKGLEWVGGIKTKPNIYATEYADSVKGRFTISRDDSKNTLYLQMNSLRAEDTAVYYCARLTGMRYFDYWGQGT VL: EPVLTQSPSASASLGASVKLTCTLSSQHSTYTIGWYQQQPGKAPRYLMYLNSDGSHNKGDGIPDRFSGSSSGADRYLTISNLQSEDEADYYCGSSYSSGYVFGGGT |
| binds | h18C12.v6 (Fab, V domains shown) VH: EVQLVESGGGLVQPGGSLRLSCAASGFTFSNRWIYWVRQAPGKGLEWVGGIKTKPNIYATEYADSVKGRFTISRDDSKNTLYLQMNSLRAEDTAVYYCARLTGMKYFDYWGQGT VL: EPVLTQSPSASASLGASVKLTCTLSSQHSTYTIGWYQQQPGKAPRYLMYLNSDGSHNKGDGIPDRFSGSSSGADRYLTISNLQSEDEADYYCAAYYAYGYVFGGGT |
